Results are given in words; binding and its absence hold for the method and conditions named. Some entries that bind do so weakly or less than the wild type. Sequences can lack the tags named with a protein.
Key:
biotinylated Wnt3a [1] = target: biotinylated Wnt3a (UniProt P27467); assay: ELISA; as a1, dilution series of PTK7-Fc on biotinylated Wnt3a or Wnt5a in the presence of 500 nM FZD7-His as a competitor; Ptk7 detected by anti-hIgG1-Fc-HRP and FZD7 by anti-His-tag-HRP; both purified
biotinylated Wnt5a [2] = target: T1, biotinylated Wnt5a (UniProt P22725); assay: as above
T1 sequence (chain, biotin): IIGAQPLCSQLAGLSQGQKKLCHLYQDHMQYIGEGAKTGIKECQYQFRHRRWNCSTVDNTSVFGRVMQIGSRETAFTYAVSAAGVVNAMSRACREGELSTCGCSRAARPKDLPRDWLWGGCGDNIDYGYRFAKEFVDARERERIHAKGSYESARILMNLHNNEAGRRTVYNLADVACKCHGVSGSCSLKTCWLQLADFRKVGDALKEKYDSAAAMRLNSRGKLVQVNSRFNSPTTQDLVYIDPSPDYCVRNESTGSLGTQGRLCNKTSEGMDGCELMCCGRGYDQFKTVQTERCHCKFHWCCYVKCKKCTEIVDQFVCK

Protein sequences, listed by entry. Tags and fused reporters are not part of them. Residues count along the entry.
UniProt P27467, residues 19-352: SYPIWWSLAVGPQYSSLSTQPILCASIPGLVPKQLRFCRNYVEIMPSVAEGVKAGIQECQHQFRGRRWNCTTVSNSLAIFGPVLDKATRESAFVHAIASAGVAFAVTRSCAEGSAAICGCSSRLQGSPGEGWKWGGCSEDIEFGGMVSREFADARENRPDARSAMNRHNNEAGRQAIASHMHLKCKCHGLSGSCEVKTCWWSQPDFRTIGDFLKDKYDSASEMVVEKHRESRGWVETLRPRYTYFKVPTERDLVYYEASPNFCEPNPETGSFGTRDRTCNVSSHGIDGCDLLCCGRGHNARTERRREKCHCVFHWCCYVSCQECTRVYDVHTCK

biotinylated Wnt3a [3] = target: biotinylated Wnt3a (UniProt P27467); assay: ELISA; biotinylated Wnt3a or Wnt5a incubated 1 h at 4 °C with a dilution series of PTK7-Fc or FZD7-His in PBS + 0.5 % BSA + 15 ppm ProClin 300, then captured on Neutravidin plates; detected by anti-hIgG1-Fc-HRP or anti-His-tag-HRP; both purified
biotinylated Wnt5a [4] = target: T1, biotinylated Wnt5a; assay: as above

Measured: binding

B1: PTK7-Fc (Ptk7 extracellular domain, sPtk7) (Fc fusion, UniProt Q13308 31-704)
chain: AIVFIKQPSSQDALQGRRALLRCEVEAPGPVHVYWLLDGAPVQDTERRFAQGSSLSFAAVDRLQDSGTFQCVARDDVTGEEARSANASFNIKWIEAGPVVLKHPASEAEIQPQTQVTLRCHIDGHPRPTYQWFRDGTPLSDGQSNHTVSSKERNLTLRPAGPEHSGLYSCCAHSAFGQACSSQNFTLSIADESFARVVLAPQDVVVARYEEAMFHCQFSAQPPPSLQWLFEDETPITNRSRPPHLRRATVFANGSLLLTQVRPRNAGIYRCIGQGQRGPPIILEATLHLAEIEDMPLFEPRVFTAGSEERVTCLPPKGLPEPSVWWEHAGVRLPTHGRVYQKGHELVLANIAESDAGVYTCHAANLAGQRRQDVNITVATVPSWLKKPQDSQLEEGKPGYLDCLTQATPKPTVVWYRNQMLISEDSRFEVFKNGTLRINSVEVYDGTWYRCMSSTPAGSIEAQARVQVLEKLKFTPPPQPQQCMEFDKEATVPCSATGREKPTIKWERADGSSLPEWVTDNAGTLHFARVTRDDAGNYTCIASNGPQGQIRAHVQLTVAVFITFKVEPERTTVYQGHTALLQCEAQGDPKPLIQWKGKDRILDPTKLGPRMHIFQNGSLVIHDVAPEDSGRYTCIAGNSCNIKHTEAPLYVVDKPVPEESEGPGSPPPYKMIQT
binds: biotinylated Wnt3a [1] | biotinylated Wnt5a [2] | biotinylated Wnt3a [3] | biotinylated Wnt5a [4]

Source: PMC9834240, “Senescent cells perturb intestinal stem cell differentiation through Ptk7 induced noncanonical Wnt and YAP signaling” (Nature Communications, 2023)
